The other results are listed elsewhere or left out.
These sequences were tested against OsWRKY34 (Oryza sativa, UniProt Q0JBA9 1-250) (assay: protein-binding microarray (RPBM); PBS, 2% BSA, 51.3 ng/ul salmon testes DNA, 50 uM zinc acetate, 200 nM TF, 25 C, 1 h; high values mean tight binding). Conditions: protein: recombinant; tags: N-terminal polyhistidine and DsRed monomer fusion (pET32a); label: CyDye5-dUTP incorporated in the synthesized complementary strand; 3' TTTTT single-stranded linker to array surface; dsDNA, one strand shown.
Outline: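 Binding signal is defined as the fluorescence intensity of each feature in arbitrary units, read on an Axon 4000B scanner. Transcription factors with N-terminal polyhistidine and DsRed fusions came from E. coli BL21-CodonPlus and were purified on Ni–NTA. They were incubated at 200 nM for 1 h at 25 °C on a custom Agilent array that had been made double-stranded with Cy5-dUTP, with 50 µM zinc acetate present, and the array was washed.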

Sequences of proteins named here, by UniProt entry; tags and fusion partners are left off.
UniProt Q0JBA9, entry or part of it: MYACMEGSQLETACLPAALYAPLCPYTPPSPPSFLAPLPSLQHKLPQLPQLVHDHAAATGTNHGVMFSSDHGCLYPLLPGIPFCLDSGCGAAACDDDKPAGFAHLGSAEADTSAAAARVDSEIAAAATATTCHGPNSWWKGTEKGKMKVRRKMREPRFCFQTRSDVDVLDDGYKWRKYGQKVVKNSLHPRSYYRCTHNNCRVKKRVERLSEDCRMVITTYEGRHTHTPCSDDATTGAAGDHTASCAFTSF

Sequence	binding signal
CTCTTGAGTTGACCGTTGTCCGTTGATCGAGTTGTTGATGCGGAGTCACCTAGTGCAG	9960 fluorescence intensity (a.u.)
CTCCATTGTGCTATACTATCACTGCCTTCGCGTGTTTCTTCGGAGTCACCTAGTGCAG	8920 fluorescence intensity (a.u.)
AGCCGCCACTAGATCTCGCCACCATCACCGACGACGGCGACGGAGTCACCTAGTGCAG	8530 fluorescence intensity (a.u.)
CGTGGTCTCTAATTTGTTTTGTTCGTTCTCCTTTCTTGTTCGGAGTCACCTAGTGCAG	15000 fluorescence intensity (a.u.)
ACAACCGCACATACGCCACGGCCCACTCCTCCTTCTCGCCCGGAGTCACCTAGTGCAG	9350 fluorescence intensity (a.u.)
TTATTTTGGTTGTATTGACCGACACGAGCCTTTTGTTGACCGGAGTCACCTAGTGCAG	8720 fluorescence intensity (a.u.)
TGTATAGGCGGTCCCAGTTTGCATTGGTTTTAGTAGTTGACGGAGTCACCTAGTGCAG	9200 fluorescence intensity (a.u.)
TCATAGACATTTTTGTAGTTTTGTCAGCAATTCTTTTATTCGGAGTCACCTAGTGCAG	8080 fluorescence intensity (a.u.)
GTCTCCAAGTTTTTTTTTTCTCTCTCTCTTTGTCGCCGTTCGGAGTCACCTAGTGCAG	8130 fluorescence intensity (a.u.)
CCCTTTTATCCTCAGTGGCTTGCCTGGTCATATTTCCATACGGAGTCACCTAGTGCAG	10600 fluorescence intensity (a.u.)
CGTTGTACGTCCAATCTTGACTGGTGCCGCGGCACCGCTGCGGAGTCACCTAGTGCAG	8160 fluorescence intensity (a.u.)
TTCTTATCCACACTGCCCGAGTCATCGTTCTTATCCATTCCGGAGTCACCTAGTGCAG	10000 fluorescence intensity (a.u.)
CTTGCACCATCACTTCATCCTCCCGGCGTGCTCGCGTGGCCGGAGTCACCTAGTGCAG	9310 fluorescence intensity (a.u.)
ACCTTGGACAACTGACTTCTCTACAGACATTAACCTTTTTCGGAGTCACCTAGTGCAG	8730 fluorescence intensity (a.u.)
TACATACGGCAGTCGTTGACCATATGAGAGCATTATCTCACGGAGTCACCTAGTGCAG	10100 fluorescence intensity (a.u.)
ACAATTAATATTTTTGCTGGTACTGTCAGTTGTTTGTTTTCGGAGTCACCTAGTGCAG	8530 fluorescence intensity (a.u.)
AGCCATCTTAAGTTAGGAACAGTTTCTTTTTTTAGAACTACGGAGTCACCTAGTGCAG	8290 fluorescence intensity (a.u.)
TCTGTATATATTACTACTTGCGTTTCTCTTTCTTTCTTCCCGGAGTCACCTAGTGCAG	11000 fluorescence intensity (a.u.)
CCACCACTCCTCGTCCCCTCCTCCACTTCCACTTCCACACCGGAGTCACCTAGTGCAG	9550 fluorescence intensity (a.u.)
TCCCTTCAAATATTGTTTTTCTTTTAACACTCAATCTCTCCGGAGTCACCTAGTGCAG	8940 fluorescence intensity (a.u.)
AGGACTTGGTAAGGTAGGTAGAAGTAGTATCATGTTTACTCGGAGTCACCTAGTGCAG	8080 fluorescence intensity (a.u.)
CCACCCTTTTTCTCTGCTTCCAGTGTACGTTTTCGAATAACGGAGTCACCTAGTGCAG	9880 fluorescence intensity (a.u.)
ACTGCTCGATTAATTGGTACTGATACTGTCCGCTCCATGACGGAGTCACCTAGTGCAG	9520 fluorescence intensity (a.u.)
TTTATGCTTTCAGTAGAAGTGTATTGTGGTTAGGGTTTTACGGAGTCACCTAGTGCAG	10200 fluorescence intensity (a.u.)
ACTGTAAAATCACAAGTACAGATCTATCTAAAATCACTTTCGGAGTCACCTAGTGCAG	8490 fluorescence intensity (a.u.)
GAGCATATTTATTTACATTATTTTCATACCATATTATTTTCGGAGTCACCTAGTGCAG	10800 fluorescence intensity (a.u.)
CACTTTGCATGTTATAATTGGGTGGGTAGCGGCCGACCTCCGGAGTCACCTAGTGCAG	15000 fluorescence intensity (a.u.)

Sequence	binding signal
GAACAGGTTAACAAATTTGTCTGCACTTTTTGTCTATTTTCGGAGTCACCTAGTGCAG	9870 fluorescence intensity (a.u.)
GTCCTTGACGCCCTGCACGTAGCTGGCCGCCTTCTTGTCCCGGAGTCACCTAGTGCAG	10400 fluorescence intensity (a.u.)
CTCGATTACCTGCCTAGTGGCCGCAATTATTGGCCCTTAACGGAGTCACCTAGTGCAG	11100 fluorescence intensity (a.u.)
CATACATGCATATAGACCATTAACTATGATCTCTTCTCCACGGAGTCACCTAGTGCAG	8180 fluorescence intensity (a.u.)
TGTTTTTTCATTAATCTACATTTTCTACTTCTAATGAATCCGGAGTCACCTAGTGCAG	8060 fluorescence intensity (a.u.)
ATTCAAATGGCCATACTGTTCTCTTGCCATCCTCTACCTGCGGAGTCACCTAGTGCAG	9870 fluorescence intensity (a.u.)
CTCGATGTTTCCGGCCCAACCTTTGGCCCGCGGAGCACCGCGGAGTCACCTAGTGCAG	8110 fluorescence intensity (a.u.)
GGTGTGTGGCCGGTCTGACCGGCAGAGTCCGAGCCTGAGTCGGAGTCACCTAGTGCAG	8580 fluorescence intensity (a.u.)
CCTCTCTATACACCCTCCCACTTGCTCCATTCCTTTCTAACGGAGTCACCTAGTGCAG	8550 fluorescence intensity (a.u.)
TATGGCTCTTTTCGGCCGTGTAGGTGGTGGTATTTATACACGGAGTCACCTAGTGCAG	9010 fluorescence intensity (a.u.)
GGAGGAGAGGGGAGGGGTGCGTTTTGAGACTTAGAAAAAACGGAGTCACCTAGTGCAG	10000 fluorescence intensity (a.u.)
TCCCGCCGGCCGCCCAGATCCAACGGCTCACATCCCATCCCGGAGTCACCTAGTGCAG	8630 fluorescence intensity (a.u.)
TACTTAATCTGATATTATCTAGCTATTTTACATGTTATTTCGGAGTCACCTAGTGCAG	8160 fluorescence intensity (a.u.)
GTCACTCTTTCACTCTCACTCTTTCACTTAACGACTTAGGCGGAGTCACCTAGTGCAG	9070 fluorescence intensity (a.u.)
TCCATTTCCTTGTTTGGTTGGGTGGATGAGAATGGATTGACGGAGTCACCTAGTGCAG	9010 fluorescence intensity (a.u.)
CGCCGAGCATTTTAAGTATCCTGTCTCTGTCTCCTCGCTTCGGAGTCACCTAGTGCAG	12000 fluorescence intensity (a.u.)
TAGTAGGGTTAGGGTTTTCGTGGTGGGCGCCGCCGCCATGCGGAGTCACCTAGTGCAG	9130 fluorescence intensity (a.u.)
TCAAAAAGTGGCGAGCCTTTTCCCCTCCGGTCTCCGCCTCCGGAGTCACCTAGTGCAG	15400 fluorescence intensity (a.u.)
ATGTTTGACTTGTCACTGTGCTAAAAATGCTTATATTTTTCGGAGTCACCTAGTGCAG	8220 fluorescence intensity (a.u.)
CTGTCTCGCGCCGCCACCGCCTACCCCTCGTTCAAAAAAACGGAGTCACCTAGTGCAG	11000 fluorescence intensity (a.u.)
AACAACCTTAACCTCACCCTTTTTTTCCCTTTTCCTTTTCCGGAGTCACCTAGTGCAG	11200 fluorescence intensity (a.u.)
ACACTTCAATCAACCACCCAACTCGCACCGCACCGGTTTTCGGAGTCACCTAGTGCAG	10200 fluorescence intensity (a.u.)
CTTCGTCCACTAGCTATTTTTTTTTGTCTTAAATTATTTGCGGAGTCACCTAGTGCAG	8360 fluorescence intensity (a.u.)
GATTCTGCCAATGGTTGCTGCACCATCTCACACACACCACCGGAGTCACCTAGTGCAG	9610 fluorescence intensity (a.u.)
AATATTTTTTTTTACTGTTTTCACTTTGACCATTAATATTCGGAGTCACCTAGTGCAG	9790 fluorescence intensity (a.u.)
CGCAATATATCCATTTTATATTCTTATTCTTTCTCATCCTCGGAGTCACCTAGTGCAG	9190 fluorescence intensity (a.u.)
CCTCCTTGTTATCGCCGACGCCACAGCAGCCGCGGGAGGTCGGAGTCACCTAGTGCAG	8360 fluorescence intensity (a.u.)

Exported comma-delimited: entries from further up.
Sequence,binding signal
TTCTTATCCACACTGCCCGAGTCATCGTTCTTATCCATTCCGGAGTCACCTAGTGCAG,10000 fluorescence intensity (a.u.)
GTCCTTGACGCCCTGCACGTAGCTGGCCGCCTTCTTGTCCCGGAGTCACCTAGTGCAG,10400 fluorescence intensity (a.u.)
